What all share (assay): pull-down
Test [1] has as its target SUMO1 E11K (untagged) (human).
For test [2], the target named is SUMO1ΔN19 (untagged) (human).
In test [3] the target is SUMO1 D12K (untagged) (human).
Test [4] has as its target Smt3 with the N-terminus deleted (untagged) (S. cerevisiae) [SUMO: Q12306].

These are yes or no findings as the source states them, for the method shown. Binding calls can cover weak binding; strength is not graded here. For some of these results: Tags and fused reporters may be left off the sequences shown.

B1: TDP2 (N-terminally GST-tagged) (enzyme, UniProt O95551 1-362)
chain: MELGSCLEGGREAAEEEGEPEVKKRRLLCVEFASVASCDAAVAQCFLAENDWEMERALNSYFEPPVEESALERRPETISEPKTYVDLTNEETTDSTTSKISPSEDTQQENGSMFSLITWNIDGLDLNNLSERARGVCSYLALYSPDVIFLQEVIPPYYSYLKKRSSNYEIITGHEEGYFTAIMLKKSRVKLKSQEIIPFPSTKMMRNLLCVHVNVSGNELCLMTSHLESTRGHAAERMNQLKMVLKKMQEAPESATVIFAGDTNLRDREVTRCGGLPNNIVDVWEFLGKPKHCQYTWDTQMNSNLGITAACKLRFDRIFFRAAAEEGHIIPRSLDLLGLEKLDCGRFPSDHWGLLCNLDIIL
Regarding B1, the binding entry in test [1], in test [2] and in test [3] was “binds” each time.

B2: Siz1(313-508), SIM-containing catalytic fragment of S. cerevisiae Siz1 (domain or fragment, UniProt Q04195 313-508)
chain: MITPEQLLEKVLQHPKIIKQATLLYLKKTLREDEEMGLTTTSTIMSLQCPISYTRMKYPSKSINCKHLQCFDALWFLHSQLQIPTWQCPVCQIDIALENLAISEFVDDILQNCQKNVEQVELTSDGKWTAILEDDDDSDSDSNDGSRSPEKGTSVSDHHCSSSHPSEPIIINLDSDDDEPNGNNPHVTNNHDDSNR
For the molecule B2, in test [4], the binding result is “binds”.
